# Source: the supplement of paper PMC8728848
# This is one part of the list.
# B1: truncCC1G-10077 (Coprinopsis cinerea) (protein)
# chain: MHHHHHHHHPLPSPGPGWVLIQNGGTGKFLCSTPSGDIGTADGPETVYDYSVQWRFIQREYTGVYHVVNRATGAYLRQIGTSMPSIGLAEENDDELKDWWMLETYDNSEIGLASIISRWTGNVLDHYGGVSVQALDNNTENSYRSWAIIPARDWLTSFSLVNGQGGLCLAAQYAREETRLSTTANVNDFHAQWVFRKPSGSSGYTIQNKYNNHYVGGTSARWELVVCCNKYFGIRNTSTQKYLAIEDGQVTFQDQDMTDRKQCWELCSGRATDTSGNDYDLIYMDDDLLEVMIPWVGDKQGDLKHYIEKRATKKPPKDKGGWQLPAAGLIKKPKFNDIRQLLQELIEQWEWDVVNEEREQIQTLVSIDEAEARRLLGRRPHPDIVAAYQRSRSSTLFRIDRQGYFNIAGDRYVNIQGQYGDDSYFHIALPVGVRFGREQIRRFLRDSLDRSTSVTITPTTCKPPSGGPDYNRDPDSDGDNSWIKWTIAVVGTSAIKHSEL
# Columns and labels:
# Assay in all cases: glycan array binding signal (z-score within array); higher = stronger binding
# Settings in all cases: glycan notation: IUPAC condensed, linker removed
# [1] = target: Neu5Ac(a2-3)Gal(b1-3)GlcNAc6S
# In short: (§1)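 The binding signal is a Z-score computed within each array. Data were drawn from 3228 arrays in the Consortium for Functional Glycomics database, restricted to those with a known protein sequence. Scores were averaged over arrays of the same protein sequence at different concentrations or buffers, and over linkers, and negative values can be taken as non-binding.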
# [2] = target: Neu5Ac(a2-3)Gal(b1-3)[Fuc(a1-4)]GlcNAc
# In short: as §1
# [3] = target: Neu5Ac(a2-3)Gal(b1-3)[Fuc(a1-4)]GlcNAc(b1-3)Gal(b1-3)[Fuc(a1-4)]GlcNAc
# In short: as §1
# [4] = target: Neu5Ac(a2-3)Gal(b1-3)[Fuc(a1-4)]GlcNAc(b1-3)Gal(b1-4)[Fuc(a1-3)]GlcNAc
# In short: as §1
# [5] = target: Neu5Ac(a2-3)Gal(b1-3)[GlcNAc(b1-6)]GalNAc
# In short: as §1
# [6] = target: Neu5Ac(a2-3)Gal(b1-3)[Neu5Ac(a2-6)]GalNAc
# In short: as §1
# [7] = target: Neu5Ac(a2-3)Gal(b1-3)[Neu5Ac(a2-6)]GlcNAc(b1-3)[Fuc(a1-3)[Gal(b1-4)]GlcNAc(b1-6)]Gal(b1-4)Glc
# In short: as §1
# [8] = target: Neu5Ac(a2-3)Gal(b1-3)]Neu5Ac(a2-3)Gal(b1-4)]GlcNAc
# In short: as §1
# Neu5Ac(a2-3)Gal(b1-4)Glc = target: Neu5Ac(a2-3)Gal(b1-4)Glc
# In short: as §1
# [9] = target: Neu5Ac(a2-3)Gal(b1-4)GlcNAc
# In short: as §1
# [10] = target: Neu5Ac(a2-3)Gal(b1-4)GlcNAc(b1-2)Man
# In short: as §1
# [11] = target: Neu5Ac(a2-3)Gal(b1-4)GlcNAc(b1-2)Man(a1-3)[GlcNAc(b1-4)][Neu5Ac(a2-3)Gal(b1-4)GlcNAc(b1-2)Man(a1-6)]Man(b1-4)GlcNAc(b1-4)GlcNAc
# In short: as §1
# [12] = target: Neu5Ac(a2-3)Gal(b1-4)GlcNAc(b1-2)Man(a1-3)[Neu5Ac(a2-3)Gal(b1-4)GlcNAc(b1-2)Man(a1-6)]Man(b1-4)GlcNAc(b1-4)GlcNAc
# In short: as §1
# [13] = target: Neu5Ac(a2-3)Gal(b1-4)GlcNAc(b1-2)Man(a1-3)[Neu5Ac(a2-3)Gal(b1-4)GlcNAc(b1-2)Man(a1-6)]Man(b1-4)GlcNAc(b1-4)[Fuc(a1-6)]GlcNAc
# In short: as §1
# [14] = target: Neu5Ac(a2-3)Gal(b1-4)GlcNAc(b1-2)Man(a1-3)[Neu5Ac(a2-6)Gal(b1-4)GlcNAc(b1-2)Man(a1-6)]Man(b1-4)GlcNAc(b1-4)GlcNAc
# In short: as §1
# [15] = target: Neu5Ac(a2-3)Gal(b1-4)GlcNAc(b1-2)[Neu5Ac(a2-3)Gal(b1-4)GlcNAc(b1-4)]Man(a1-3)[GlcNAc(b1-4)][Neu5Ac(a2-3)Gal(b1-4)GlcNAc(b1-2)[Neu5Ac(a2-3)Gal(b1-4)GlcNAc(b1-6)]Man(a1-6)]Man(b1-4)GlcNAc(b1-4)GlcNAc
# In short: as §1
# [16] = target: Neu5Ac(a2-3)Gal(b1-4)GlcNAc(b1-2)[Neu5Ac(a2-3)Gal(b1-4)GlcNAc(b1-4)]Man(a1-3)[GlcNAc(b1-4)][Neu5Ac(a2-3)Gal(b1-4)GlcNAc(b1-4)Man(a1-6)]Man(b1-4)GlcNAc(b1-4)GlcNAc
# In short: as §1
# [17] = target: Neu5Ac(a2-3)Gal(b1-4)GlcNAc(b1-2)[Neu5Ac(a2-3)Gal(b1-4)GlcNAc(b1-6)]Man(a1-6)[Neu5Ac(a2-3)Gal(b1-4)GlcNAc(b1-2)Man(a1-3)][GlcNAc(b1-4)]Man(b1-4)GlcNAc(b1-4)GlcNAc
# In short: as §1
# [18] = target: Neu5Ac(a2-3)Gal(b1-4)GlcNAc(b1-3)Gal
# In short: as §1
# [19] = target: Neu5Ac(a2-3)Gal(b1-4)GlcNAc(b1-3)Gal(b1-3)GlcNAc
# In short: as §1
# [20] = target: Neu5Ac(a2-3)Gal(b1-4)GlcNAc(b1-3)Gal(b1-4)GlcNAc
# In short: as §1
# [21] = target: Neu5Ac(a2-3)Gal(b1-4)GlcNAc(b1-3)Gal(b1-4)GlcNAc(b1-2)Man(a1-3)[Neu5Ac(a2-3)Gal(b1-4)GlcNAc(b1-3)Gal(b1-4)GlcNAc(b1-2)Man(a1-6)]Man(b1-4)GlcNAc(b1-4)GlcNAc
# In short: as §1
# [22] = target: Neu5Ac(a2-3)Gal(b1-4)GlcNAc(b1-3)Gal(b1-4)GlcNAc(b1-3)Gal(b1-4)GlcNAc
# In short: as §1
# [23] = target: Neu5Ac(a2-3)Gal(b1-4)GlcNAc(b1-3)Gal(b1-4)GlcNAc(b1-3)Gal(b1-4)GlcNAc(b1-2)Man(a1-3)[Neu5Ac(a2-3)Gal(b1-4)GlcNAc(b1-3)Gal(b1-4)GlcNAc(b1-3)Gal(b1-4)GlcNAc(b1-2)Man(a1-6)]GalNAc
# In short: as §1
# [24] = target: Neu5Ac(a2-3)Gal(b1-4)GlcNAc(b1-3)Gal(b1-4)GlcNAc(b1-3)GalNAc
# In short: as §1
# [25] = target: Neu5Ac(a2-3)Gal(b1-4)GlcNAc(b1-3)Gal(b1-4)GlcNAc(b1-3)[Neu5Ac(a2-3)Gal(b1-4)GlcNAc(b1-3)Gal(b1-4)GlcNAc(b1-6)]GalNAc
# In short: as §1
# [26] = target: Neu5Ac(a2-3)Gal(b1-4)GlcNAc(b1-3)Gal(b1-4)GlcNAc(b1-6)[Gal(b1-3)]GalNAc
# In short: as §1
# [27] = target: Neu5Ac(a2-3)Gal(b1-4)GlcNAc(b1-3)Gal(b1-4)[Fuc(a1-3)]GlcNAc
# In short: as §1
# [28] = target: Neu5Ac(a2-3)Gal(b1-4)GlcNAc(b1-3)GalNAc
# In short: as §1
# [29] = target: Neu5Ac(a2-3)Gal(b1-4)GlcNAc(b1-3)[Neu5Ac(a2-3)Gal(b1-4)GlcNAc(b1-6)]GalNAc
# In short: as §1
binder,measurement,setting,value
B1,glycan array binding signal (z-score),[1],-0.589
same,glycan array binding signal (z-score),[2],-0.52
same,glycan array binding signal (z-score),[3],0.498
same,glycan array binding signal (z-score),[4],0.323
same,glycan array binding signal (z-score),[5],-0.439
same,glycan array binding signal (z-score),[6],0.298
same,glycan array binding signal (z-score),[7],-0.327
same,glycan array binding signal (z-score),[8],0.059
same,glycan array binding signal (z-score),Neu5Ac(a2-3)Gal(b1-4)Glc,0.72
same,glycan array binding signal (z-score),[9],-0.796
same,glycan array binding signal (z-score),[10],2.91
same,glycan array binding signal (z-score),[11],-0.804
same,glycan array binding signal (z-score),[12],0.575
same,glycan array binding signal (z-score),[13],0.679
same,glycan array binding signal (z-score),[14],-1.19
same,glycan array binding signal (z-score),[15],1.51
same,glycan array binding signal (z-score),[16],0.077
same,glycan array binding signal (z-score),[17],-0.478
same,glycan array binding signal (z-score),[18],-0.492
same,glycan array binding signal (z-score),[19],-0.855
same,glycan array binding signal (z-score),[20],-0.788
same,glycan array binding signal (z-score),[21],0.036
same,glycan array binding signal (z-score),[22],-1.07
same,glycan array binding signal (z-score),[23],0.381
same,glycan array binding signal (z-score),[24],0.244
same,glycan array binding signal (z-score),[25],0.736
same,glycan array binding signal (z-score),[26],1.16
same,glycan array binding signal (z-score),[27],0.12
same,glycan array binding signal (z-score),[28],-0.5
same,glycan array binding signal (z-score),[29],0.561

# Looked up one by one from above, two records:
binder,measurement,setting,value
B1,glycan array binding signal (z-score),[29],0.561
same,glycan array binding signal (z-score),[4],0.323
